# Structures can show the parent of a compound that is named as a salt. Some of the results follow. Most entries show no effect beyond the scatter of the controls.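 Reh, a human leukemia cell line, is read out by flow cytometry as the median γH2AX antibody signal in S-phase cells; the score counts standard deviations from the median difference of each paired plate set. Scores above 2.5 were candidate hits; scores below -2 mark compounds lowering MK1775-induced damage.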
# System: Reh
# Test: Z' of S-phase gammaH2AX difference (drug + MK1775 minus drug alone) (Z-score); higher = stronger synergistic S-phase DNA damage with MK1775
# Conditions: MK1775 concentration 400 nM; first compound 10 µM; 4 h
row,SMILES,Z' of S-phase gammaH2AX difference (Z-score)
1,CS(=O)(=O)c1cccc(CNc2nc(Nc3ccc4c(c3)CCC(=O)N4)ncc2C(F)(F)F)c1 + C=CCn1c(=O)c2cnc(Nc3ccc(N4CCN(C)CC4)cc3)nc2n1-c1cccc(C(C)(C)O)n1 [MK1775],inactive: -1.12
2,S=C(Nc1ccccc1)Nc1nccs1 [1-Phenyl-3-(2-thiazolyl)-2-thiourea] + C=CCn1c(=O)c2cnc(Nc3ccc(N4CCN(C)CC4)cc3)nc2n1-c1cccc(C(C)(C)O)n1 [MK1775],inactive: -0.868
3,CSc1ccc(C(=O)c2[nH]c(=O)[nH]c2C)cc1 [Enoximone] + C=CCn1c(=O)c2cnc(Nc3ccc(N4CCN(C)CC4)cc3)nc2n1-c1cccc(C(C)(C)O)n1 [MK1775],inactive: -0.561
4,Cc1ccc(NC(=O)c2ccc(CN3CC[C@H](N(C)C)C3)c(C(F)(F)F)c2)cc1Nc1nccc(-c2cncnc2)n1 [Bafetinib (INNO-406)] + C=CCn1c(=O)c2cnc(Nc3ccc(N4CCN(C)CC4)cc3)nc2n1-c1cccc(C(C)(C)O)n1 [MK1775],inactive: -0.465
5,COc1ccc(-c2ccc(=N)n(CCCC(=O)O)n2)cc1 + C=CCn1c(=O)c2cnc(Nc3ccc(N4CCN(C)CC4)cc3)nc2n1-c1cccc(C(C)(C)O)n1 [MK1775],inactive: 0.028
6,CCCCCCCCCCCCCCCC(=O)NCCO [Palmitoylethanolamide] + C=CCn1c(=O)c2cnc(Nc3ccc(N4CCN(C)CC4)cc3)nc2n1-c1cccc(C(C)(C)O)n1 [MK1775],inactive: -1.15
7,CO[C@@H](C(=O)N1Cc2[nH]nc(NC(=O)c3ccc(N4CCN(C)CC4)cc3)c2C1)c1ccccc1 + C=CCn1c(=O)c2cnc(Nc3ccc(N4CCN(C)CC4)cc3)nc2n1-c1cccc(C(C)(C)O)n1 [MK1775],inactive: -0.901
8,CN1CCN(C2=Nc3cc(Cl)ccc3Nc3ccccc32)CC1 [Clozapine] + C=CCn1c(=O)c2cnc(Nc3ccc(N4CCN(C)CC4)cc3)nc2n1-c1cccc(C(C)(C)O)n1 [MK1775],inactive: 0.204
9,C=CC[C@H](N)C(=O)O [L-allylglycine] + C=CCn1c(=O)c2cnc(Nc3ccc(N4CCN(C)CC4)cc3)nc2n1-c1cccc(C(C)(C)O)n1 [MK1775],inactive: -0.464
10,Brc1ccc([C@H]2CN3CCSC3=N2)cc1 [S(-)-p-Bromotetramisole oxalate] + C=CCn1c(=O)c2cnc(Nc3ccc(N4CCN(C)CC4)cc3)nc2n1-c1cccc(C(C)(C)O)n1 [MK1775],inactive: 0.11
11,O=C(O)c1ccccc1Nc1ccccc1 [N-Phenylanthranilic acid] + C=CCn1c(=O)c2cnc(Nc3ccc(N4CCN(C)CC4)cc3)nc2n1-c1cccc(C(C)(C)O)n1 [MK1775],inactive: -0.321
12,NCC=CC(=O)O (stereo in doubt) [cis-4-Aminocrotonic acid] + C=CCn1c(=O)c2cnc(Nc3ccc(N4CCN(C)CC4)cc3)nc2n1-c1cccc(C(C)(C)O)n1 [MK1775],inactive: -0.0601
13,CC(=O)[C@H]1CC[C@H]2[C@@H]3CC=C4C[C@@H](OS(=O)(=O)O)CC[C@]4(C)[C@H]3CC[C@]12C [Pregnenolone sulfate sodium] + C=CCn1c(=O)c2cnc(Nc3ccc(N4CCN(C)CC4)cc3)nc2n1-c1cccc(C(C)(C)O)n1 [MK1775],inactive: 1.8
14,N#C/C(=C\c1ccc(O)c(O)c1)C(=O)c1ccc(O)c(O)c1 [Tyrphostin AG 538] + C=CCn1c(=O)c2cnc(Nc3ccc(N4CCN(C)CC4)cc3)nc2n1-c1cccc(C(C)(C)O)n1 [MK1775],inactive: 0.449
15,NC12CC3CC(CC(C3)C1)C2 [Amantadine hydrochloride] + C=CCn1c(=O)c2cnc(Nc3ccc(N4CCN(C)CC4)cc3)nc2n1-c1cccc(C(C)(C)O)n1 [MK1775],inactive: -0.2
16,CC1(C2CCCC2)Cc2cc(OCC(=O)O)c(Cl)c(Cl)c2C1=O (centres undefined) + C=CCn1c(=O)c2cnc(Nc3ccc(N4CCN(C)CC4)cc3)nc2n1-c1cccc(C(C)(C)O)n1 [MK1775],inactive: 0.556
17,CCOC(=O)[C@]12CC1/C(=N\O)c1ccccc1O2 (some centres undefined) + C=CCn1c(=O)c2cnc(Nc3ccc(N4CCN(C)CC4)cc3)nc2n1-c1cccc(C(C)(C)O)n1 [MK1775],inactive: -0.234
18,NCCCCNCCCN [Spermidine trihydrochloride] + C=CCn1c(=O)c2cnc(Nc3ccc(N4CCN(C)CC4)cc3)nc2n1-c1cccc(C(C)(C)O)n1 [MK1775],inactive: 0.0951
19,Nc1ncn([C@H]2C[C@H](O)[C@@H](CO)O2)c(=O)n1 [Decitabine] + C=CCn1c(=O)c2cnc(Nc3ccc(N4CCN(C)CC4)cc3)nc2n1-c1cccc(C(C)(C)O)n1 [MK1775],inactive: 0.415
20,O=C(Cc1ccc(-c2ccc(OCCN3CCOCC3)cc2)cn1)NCc1ccccc1 + C=CCn1c(=O)c2cnc(Nc3ccc(N4CCN(C)CC4)cc3)nc2n1-c1cccc(C(C)(C)O)n1 [MK1775],inactive: 0.0909
21,N[C@H](CO)C(=O)O [D-Serine] + C=CCn1c(=O)c2cnc(Nc3ccc(N4CCN(C)CC4)cc3)nc2n1-c1cccc(C(C)(C)O)n1 [MK1775],inactive: -0.502
22,NC(Cc1cccc(-c2ccccc2CP(=O)(O)O)c1)C(=O)O (stereo not drawn) [Phenylbenzene-omega-phosphono-alpha-amino acid] + C=CCn1c(=O)c2cnc(Nc3ccc(N4CCN(C)CC4)cc3)nc2n1-c1cccc(C(C)(C)O)n1 [MK1775],inactive: 0.204
23,O=S(=O)(c1cccc2cnccc12)N1CCNCC1 + C=CCn1c(=O)c2cnc(Nc3ccc(N4CCN(C)CC4)cc3)nc2n1-c1cccc(C(C)(C)O)n1 [MK1775],inactive: 1.67
24,CCN[C@H]1C[C@H](C)S(=O)(=O)c2sc(S(N)(=O)=O)cc21 [Dorzolamide HCL] + C=CCn1c(=O)c2cnc(Nc3ccc(N4CCN(C)CC4)cc3)nc2n1-c1cccc(C(C)(C)O)n1 [MK1775],inactive: 0.412

# Random excerpt: two entries already listed.
row,SMILES,Z' of S-phase gammaH2AX difference (Z-score)
11,O=C(O)c1ccccc1Nc1ccccc1 [N-Phenylanthranilic acid] + C=CCn1c(=O)c2cnc(Nc3ccc(N4CCN(C)CC4)cc3)nc2n1-c1cccc(C(C)(C)O)n1 [MK1775],inactive: -0.321
4,Cc1ccc(NC(=O)c2ccc(CN3CC[C@H](N(C)C)C3)c(C(F)(F)F)c2)cc1Nc1nccc(-c2cncnc2)n1 [Bafetinib (INNO-406)] + C=CCn1c(=O)c2cnc(Nc3ccc(N4CCN(C)CC4)cc3)nc2n1-c1cccc(C(C)(C)O)n1 [MK1775],inactive: -0.465

# — the supplement of paper PMC5355238
